Data taken from the supplement of paper PMC10849652.
The other results are listed elsewhere or left out.

Chains of the proteins cited; added tags and fusions are not shown. Lines headed by an entry give the natural chain unless they say otherwise; changes in a name come on top.
UniProt O43252: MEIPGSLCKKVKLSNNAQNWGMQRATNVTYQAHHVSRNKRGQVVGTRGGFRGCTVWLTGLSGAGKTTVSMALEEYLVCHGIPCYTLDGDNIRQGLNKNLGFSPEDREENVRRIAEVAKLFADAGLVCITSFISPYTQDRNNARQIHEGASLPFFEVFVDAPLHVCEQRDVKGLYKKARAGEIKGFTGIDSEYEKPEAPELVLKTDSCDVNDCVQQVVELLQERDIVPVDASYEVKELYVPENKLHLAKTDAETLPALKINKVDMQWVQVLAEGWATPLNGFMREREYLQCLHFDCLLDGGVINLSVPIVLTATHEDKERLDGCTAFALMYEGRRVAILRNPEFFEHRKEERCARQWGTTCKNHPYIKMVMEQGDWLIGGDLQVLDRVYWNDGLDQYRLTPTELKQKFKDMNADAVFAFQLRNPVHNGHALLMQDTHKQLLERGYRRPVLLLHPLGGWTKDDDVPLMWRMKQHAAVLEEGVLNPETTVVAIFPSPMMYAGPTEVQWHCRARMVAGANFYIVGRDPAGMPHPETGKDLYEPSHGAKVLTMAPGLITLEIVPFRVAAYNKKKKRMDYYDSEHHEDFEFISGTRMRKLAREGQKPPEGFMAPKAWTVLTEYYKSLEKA
UniProt Q96GU1: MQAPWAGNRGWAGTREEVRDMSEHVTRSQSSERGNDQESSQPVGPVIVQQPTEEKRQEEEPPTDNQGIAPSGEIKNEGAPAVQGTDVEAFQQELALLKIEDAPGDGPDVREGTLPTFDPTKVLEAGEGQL
UniProt Q5T2R2: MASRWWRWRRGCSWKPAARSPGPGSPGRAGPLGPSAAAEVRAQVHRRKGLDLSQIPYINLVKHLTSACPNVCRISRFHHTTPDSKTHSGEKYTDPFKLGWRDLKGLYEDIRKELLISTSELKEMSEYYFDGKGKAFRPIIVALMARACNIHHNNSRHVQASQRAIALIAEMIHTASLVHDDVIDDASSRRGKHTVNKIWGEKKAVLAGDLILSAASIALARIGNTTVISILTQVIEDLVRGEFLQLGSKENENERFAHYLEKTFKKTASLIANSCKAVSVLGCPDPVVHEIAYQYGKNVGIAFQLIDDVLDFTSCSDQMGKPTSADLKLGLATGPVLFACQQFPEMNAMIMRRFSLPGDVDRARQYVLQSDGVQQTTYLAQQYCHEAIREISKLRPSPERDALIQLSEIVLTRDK
UniProt Q9BUH6, whole entry, looked up: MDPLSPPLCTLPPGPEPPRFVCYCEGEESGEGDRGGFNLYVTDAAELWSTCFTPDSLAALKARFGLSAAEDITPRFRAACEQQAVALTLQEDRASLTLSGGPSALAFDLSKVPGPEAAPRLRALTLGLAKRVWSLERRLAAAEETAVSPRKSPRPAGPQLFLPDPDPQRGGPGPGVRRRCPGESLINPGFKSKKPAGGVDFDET
UniProt Q6L8Q7: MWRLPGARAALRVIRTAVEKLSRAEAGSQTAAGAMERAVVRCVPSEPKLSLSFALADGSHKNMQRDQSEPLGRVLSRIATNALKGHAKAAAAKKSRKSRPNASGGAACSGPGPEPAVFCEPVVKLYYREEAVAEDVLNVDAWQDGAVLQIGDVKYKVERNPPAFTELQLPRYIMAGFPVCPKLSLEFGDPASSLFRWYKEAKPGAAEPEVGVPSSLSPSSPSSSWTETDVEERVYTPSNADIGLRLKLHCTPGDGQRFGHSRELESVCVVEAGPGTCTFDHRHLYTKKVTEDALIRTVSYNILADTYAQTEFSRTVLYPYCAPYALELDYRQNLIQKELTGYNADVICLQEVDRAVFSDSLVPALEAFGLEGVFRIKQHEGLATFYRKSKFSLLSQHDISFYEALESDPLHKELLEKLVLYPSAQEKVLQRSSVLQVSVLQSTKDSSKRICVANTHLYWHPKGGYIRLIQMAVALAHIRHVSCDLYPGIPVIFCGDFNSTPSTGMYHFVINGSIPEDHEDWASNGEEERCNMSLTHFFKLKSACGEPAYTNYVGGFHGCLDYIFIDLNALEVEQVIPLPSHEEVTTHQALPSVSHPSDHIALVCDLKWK
UniProt Q96HC4: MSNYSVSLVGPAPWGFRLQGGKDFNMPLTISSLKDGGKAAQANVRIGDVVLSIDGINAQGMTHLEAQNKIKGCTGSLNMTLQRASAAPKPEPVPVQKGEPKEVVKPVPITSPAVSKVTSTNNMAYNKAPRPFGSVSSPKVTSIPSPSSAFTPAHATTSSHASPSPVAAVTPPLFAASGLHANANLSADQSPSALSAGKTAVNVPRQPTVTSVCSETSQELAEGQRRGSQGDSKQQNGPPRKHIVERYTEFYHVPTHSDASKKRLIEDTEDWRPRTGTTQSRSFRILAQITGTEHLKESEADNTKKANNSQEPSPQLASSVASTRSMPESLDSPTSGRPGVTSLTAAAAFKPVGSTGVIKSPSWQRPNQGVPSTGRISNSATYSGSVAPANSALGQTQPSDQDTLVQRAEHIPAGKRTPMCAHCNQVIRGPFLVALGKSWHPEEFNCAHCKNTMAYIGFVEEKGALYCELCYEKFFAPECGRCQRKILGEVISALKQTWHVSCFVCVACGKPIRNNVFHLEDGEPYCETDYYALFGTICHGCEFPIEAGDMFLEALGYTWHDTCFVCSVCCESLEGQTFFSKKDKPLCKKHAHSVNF
UniProt Q9BYG5: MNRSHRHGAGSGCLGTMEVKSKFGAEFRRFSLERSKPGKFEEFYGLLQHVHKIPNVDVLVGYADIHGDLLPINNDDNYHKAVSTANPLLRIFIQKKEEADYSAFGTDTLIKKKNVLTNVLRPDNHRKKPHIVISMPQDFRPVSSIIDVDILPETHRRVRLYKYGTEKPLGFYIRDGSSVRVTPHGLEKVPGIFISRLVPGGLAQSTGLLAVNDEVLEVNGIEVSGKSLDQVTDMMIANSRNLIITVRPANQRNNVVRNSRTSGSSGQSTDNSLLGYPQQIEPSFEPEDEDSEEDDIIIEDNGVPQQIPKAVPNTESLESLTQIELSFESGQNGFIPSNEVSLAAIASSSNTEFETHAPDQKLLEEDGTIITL
UniProt Q13310, whole entry, looked up: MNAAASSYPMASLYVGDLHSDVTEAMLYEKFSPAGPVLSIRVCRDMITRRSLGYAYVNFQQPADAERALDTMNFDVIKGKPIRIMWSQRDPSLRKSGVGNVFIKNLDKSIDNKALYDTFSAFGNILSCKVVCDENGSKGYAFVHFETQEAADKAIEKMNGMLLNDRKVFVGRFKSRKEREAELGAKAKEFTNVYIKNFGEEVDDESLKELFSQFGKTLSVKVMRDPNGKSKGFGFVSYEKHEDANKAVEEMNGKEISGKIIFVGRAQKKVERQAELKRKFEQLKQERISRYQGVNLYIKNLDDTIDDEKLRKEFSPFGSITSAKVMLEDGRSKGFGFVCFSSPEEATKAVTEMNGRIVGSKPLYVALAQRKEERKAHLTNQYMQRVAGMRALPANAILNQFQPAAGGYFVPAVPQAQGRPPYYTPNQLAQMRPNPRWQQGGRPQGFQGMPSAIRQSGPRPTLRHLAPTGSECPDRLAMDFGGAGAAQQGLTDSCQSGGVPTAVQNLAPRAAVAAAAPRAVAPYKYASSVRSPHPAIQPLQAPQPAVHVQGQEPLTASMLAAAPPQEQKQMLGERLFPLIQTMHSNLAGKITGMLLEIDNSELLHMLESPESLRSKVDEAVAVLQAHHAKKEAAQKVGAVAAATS
UniProt Q8NCN5: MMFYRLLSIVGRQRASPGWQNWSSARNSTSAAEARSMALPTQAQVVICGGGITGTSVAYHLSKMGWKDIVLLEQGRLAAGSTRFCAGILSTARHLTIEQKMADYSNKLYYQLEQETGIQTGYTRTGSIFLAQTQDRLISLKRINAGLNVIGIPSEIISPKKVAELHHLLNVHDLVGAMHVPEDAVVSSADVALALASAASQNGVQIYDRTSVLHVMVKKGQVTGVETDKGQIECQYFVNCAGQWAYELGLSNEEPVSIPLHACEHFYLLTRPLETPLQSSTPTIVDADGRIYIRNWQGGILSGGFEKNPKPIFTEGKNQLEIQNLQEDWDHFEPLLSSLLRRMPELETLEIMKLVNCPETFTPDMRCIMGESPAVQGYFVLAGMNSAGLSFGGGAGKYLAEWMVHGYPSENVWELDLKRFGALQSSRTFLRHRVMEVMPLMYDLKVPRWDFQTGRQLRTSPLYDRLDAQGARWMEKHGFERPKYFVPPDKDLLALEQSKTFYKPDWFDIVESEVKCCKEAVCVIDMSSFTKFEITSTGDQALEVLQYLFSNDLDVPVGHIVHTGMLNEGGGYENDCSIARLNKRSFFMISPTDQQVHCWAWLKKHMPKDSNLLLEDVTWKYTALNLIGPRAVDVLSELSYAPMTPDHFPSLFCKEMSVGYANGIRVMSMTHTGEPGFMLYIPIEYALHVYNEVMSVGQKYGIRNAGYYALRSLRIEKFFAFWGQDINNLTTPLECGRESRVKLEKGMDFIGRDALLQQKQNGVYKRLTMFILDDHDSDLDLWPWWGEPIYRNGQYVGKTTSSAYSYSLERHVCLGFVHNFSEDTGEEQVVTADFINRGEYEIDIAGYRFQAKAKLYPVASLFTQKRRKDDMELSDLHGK
UniProt Q9H2J4: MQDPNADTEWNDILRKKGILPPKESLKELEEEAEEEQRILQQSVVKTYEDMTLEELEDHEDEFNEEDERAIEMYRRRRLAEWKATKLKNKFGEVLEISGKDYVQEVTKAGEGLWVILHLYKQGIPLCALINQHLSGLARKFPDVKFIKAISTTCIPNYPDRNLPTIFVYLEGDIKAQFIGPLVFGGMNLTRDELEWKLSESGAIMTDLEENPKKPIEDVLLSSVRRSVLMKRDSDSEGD
UniProt P43034: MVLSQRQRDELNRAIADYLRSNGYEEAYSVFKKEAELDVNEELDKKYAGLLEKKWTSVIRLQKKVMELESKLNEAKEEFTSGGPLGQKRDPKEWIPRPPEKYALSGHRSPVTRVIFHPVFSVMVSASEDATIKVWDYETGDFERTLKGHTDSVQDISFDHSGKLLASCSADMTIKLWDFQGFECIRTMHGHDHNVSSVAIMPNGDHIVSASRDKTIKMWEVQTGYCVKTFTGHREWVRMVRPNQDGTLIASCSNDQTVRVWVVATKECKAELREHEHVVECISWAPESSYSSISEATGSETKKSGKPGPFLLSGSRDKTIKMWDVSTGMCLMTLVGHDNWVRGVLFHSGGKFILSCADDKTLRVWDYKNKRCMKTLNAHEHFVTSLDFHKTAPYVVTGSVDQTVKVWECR
UniProt O43933: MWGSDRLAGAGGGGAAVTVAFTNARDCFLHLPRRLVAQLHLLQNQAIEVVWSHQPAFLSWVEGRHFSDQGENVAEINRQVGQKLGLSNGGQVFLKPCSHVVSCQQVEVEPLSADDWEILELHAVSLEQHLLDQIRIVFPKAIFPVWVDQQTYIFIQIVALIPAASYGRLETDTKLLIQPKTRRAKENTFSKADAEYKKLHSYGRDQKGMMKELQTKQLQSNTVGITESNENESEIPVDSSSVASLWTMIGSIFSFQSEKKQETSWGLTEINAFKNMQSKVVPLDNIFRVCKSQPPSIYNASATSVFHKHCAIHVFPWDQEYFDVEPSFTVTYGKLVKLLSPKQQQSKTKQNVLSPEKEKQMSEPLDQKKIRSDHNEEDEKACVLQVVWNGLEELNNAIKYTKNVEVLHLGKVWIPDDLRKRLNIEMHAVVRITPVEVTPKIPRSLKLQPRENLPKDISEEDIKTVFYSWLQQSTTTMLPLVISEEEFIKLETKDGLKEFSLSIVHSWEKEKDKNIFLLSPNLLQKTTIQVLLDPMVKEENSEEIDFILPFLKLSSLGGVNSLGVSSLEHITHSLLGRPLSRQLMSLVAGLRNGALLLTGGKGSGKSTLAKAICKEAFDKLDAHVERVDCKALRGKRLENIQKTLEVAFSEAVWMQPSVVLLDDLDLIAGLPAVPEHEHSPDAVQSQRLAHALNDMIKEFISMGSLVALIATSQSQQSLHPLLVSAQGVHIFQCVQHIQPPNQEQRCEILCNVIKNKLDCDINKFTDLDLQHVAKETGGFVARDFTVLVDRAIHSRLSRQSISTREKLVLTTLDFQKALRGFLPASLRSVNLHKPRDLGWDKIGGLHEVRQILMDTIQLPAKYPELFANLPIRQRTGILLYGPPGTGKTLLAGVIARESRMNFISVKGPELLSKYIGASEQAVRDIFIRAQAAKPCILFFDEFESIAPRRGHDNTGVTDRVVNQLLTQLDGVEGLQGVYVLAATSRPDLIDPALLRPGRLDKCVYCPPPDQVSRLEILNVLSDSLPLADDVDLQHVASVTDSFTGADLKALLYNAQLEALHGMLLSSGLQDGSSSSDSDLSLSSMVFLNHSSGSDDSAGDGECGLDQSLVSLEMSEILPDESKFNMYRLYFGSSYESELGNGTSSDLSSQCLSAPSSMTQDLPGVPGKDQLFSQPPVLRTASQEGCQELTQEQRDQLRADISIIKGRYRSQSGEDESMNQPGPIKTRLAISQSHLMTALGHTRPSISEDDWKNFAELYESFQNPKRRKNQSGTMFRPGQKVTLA
UniProt P0DJ07: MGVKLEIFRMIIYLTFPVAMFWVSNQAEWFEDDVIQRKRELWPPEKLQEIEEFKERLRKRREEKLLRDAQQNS

Key:
Assay in all cases: log2 fold change, soluble protein after heating vs DMSO (PISA); higher = thermal stabilisation; K562 cells, 10 uM, 30 min; active = over 0.2 and 3.5 SD of the protein, either way, in both replicates (recomputed)
erlotinib = compound: C#Cc1cccc(Nc2ncnc3cc(OCCOC)c(OCCOC)cc23)c1 [erlotinib]
Outline: (§1)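 Aliquots of K562 cells (2×10^6 cells/mL) treated with 10 μM compound for 30 min were heated for 3 min over 48°C-58°C. After pooling and extraction in PBS with 0.5% NP-40 at 4°C, soluble protein from a 21,000xg, 90 min spin was quantified by TMTpro 16plex LC-MS/MS with channel sums equalised. Thermal stability is expressed against control samples, from duplicates, as a log2 fold change.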

[1] = compound: C/C(=N\NC(=O)C1=CC(=CC=C1)S(=O)(=O)N2CCOCC2)/C3=C(C=CC(=C3)Cl)O
Outline: as §1

[2] = compound: C1=CC(=C(C=C1Cl)C2=NC3=NC=CN=C3C(=N2)NC4=CC=NC=C4)F
Outline: as §1

[3] = compound: C1=CC(=CC=C1C2=NC3=C(N2)C=C(C=C3)C(=O)N)OC4=CC=C(C=C4)Cl
Outline: as §1

[4] = compound: C1=CC2=C(C=CC(=C2)/C=C\3/C(=O)NC(=NCC4=CC=CS4)S3)N=C1
Outline: as §1

[5] = compound: C1=CC2=NC=CN=C2C=C1/C=C/3\C(=O)NC(=O)S3
Outline: as §1

[6] = compound: C1=CC=C(C=C1)C2=NC(=C(N2)C3=CC=NC=C3)C4=CC(=C(C=C4)Cl)O
Outline: as §1

[7] = compound: C1=CC=C2C(=C1)C3=NNC4=CC=CC(=C43)C2=O
Outline: as §1

[8] = compound: C1CCN(C1)C(=O)NC2=CC=CC(=C2)NC3=NC=C(C(=N3)NCCC4=CN=CN4)Br
Outline: as §1

[9] = compound: C1CN(CCC1(CC2=CC=C(C=C2)Cl)N)C3=NC=NC4=C3C=CN4
Outline: as §1

Target | log2 fold change (erlotinib) | log2 fold change [1] | log2 fold change [2] | log2 fold change [3] | log2 fold change [4] | log2 fold change [5] | log2 fold change [6] | log2 fold change [7] | log2 fold change [8] | log2 fold change [9]
PAPSS1 (UniProt O43252) | inactive: 0.043 | inactive: -0.006 | inactive: 0.027 | inactive: 0.003 | inactive: 0.007 | inactive: 0.009 | inactive: -0.064 | inactive: 0.023 | inactive: 0.008 | inactive: 0.027
PDIA6 isoform 2 (UniProt Q15084) | inactive: -0.01 | inactive: -0.054 | inactive: 0.035 | inactive: -0.041 | inactive: -0.046 | inactive: 0.013 | inactive: -0.014 | inactive: 0.006 | inactive: 0.024 | inactive: 0.049
PCK2 (UniProt Q16822) | inactive: 0.025 | active: -0.224 | inactive: 0.108 | inactive: -0.009 | inactive: 0.038 | inactive: -0.016 | inactive: -0.023 | inactive: 0.072 | inactive: -0.018 | inactive: -0.001
PCCA (UniProt P05165) | inactive: 0.01 | inactive: -0.029 | inactive: 0.034 | inactive: 0.038 | inactive: 0.089 | inactive: 0.061 | inactive: 0.073 | inactive: 0.035 | inactive: -0.02 | inactive: 0.038
PAGR1 (UniProt Q9BTK6) | inactive: 0.004 | inactive: -0.015 | inactive: 0.047 | inactive: -0.04 | inactive: 0.01 | inactive: 0.103 | inactive: -0.108 | inactive: 0.062 | inactive: -0.044 | inactive: -0.031
PELP1 (UniProt Q8IZL8) | inactive: 0.082 | inactive: 0.044 | inactive: -0.035 | inactive: 0.008 | inactive: -0.032 | inactive: -0.008 | inactive: 0.007 | inactive: -0.053 | inactive: -0.041 | inactive: 0.08
PBXIP1 (UniProt Q96AQ6) | inactive: -0.006 | inactive: -0.051 | inactive: -0.026 | inactive: 0.02 | inactive: 0.028 | inactive: 0.049 | inactive: -0.023 | inactive: 0.017 | inactive: -0.055 | inactive: 0.002
PCYT1A (UniProt P49585) | inactive: -0.014 | inactive: 0.125 | inactive: -0.03 | inactive: -0.001 | inactive: 0.019 | inactive: 0.054 | inactive: -0.09 | inactive: -0.033 | inactive: -0.043 | inactive: -0.009
PCBP2 isoform 3 (UniProt Q15366) | inactive: -0.01 | inactive: 0.087 | inactive: 0.038 | inactive: -0.039 | inactive: 0.019 | inactive: 0.025 | inactive: 0.063 | inactive: 0.017 | inactive: -0.039 | inactive: 0.01
PAGE5 (UniProt Q96GU1) | inactive: -0.208 | inactive: -0.114 | inactive: 0.136 | inactive: 0.024 | inactive: 0.017 | inactive: 0.182 | inactive: 0.055 | inactive: -0.031 | inactive: -0.007 | inactive: -0.271
PDSS1 (UniProt Q5T2R2) | inactive: -0.02 | inactive: 0.14 | inactive: 0.25 | inactive: -0.016 | inactive: 0.029 | inactive: -0.008 | inactive: 0.02 | inactive: -0.036 | inactive: -0.036 | inactive: 0.012
PAXX (UniProt Q9BUH6) | inactive: 0.018 | inactive: -0.004 | inactive: 0.021 | inactive: 0.019 | inactive: -0.038 | inactive: 0.018 | inactive: -0.096 | inactive: -0.001 | inactive: 0.014 | inactive: 0.085
PDE12 (UniProt Q6L8Q7) | inactive: -0.023 | inactive: 0.018 | inactive: 0.052 | inactive: 0.027 | inactive: 0.001 | inactive: -0.008 | inactive: -0.015 | inactive: 0.054 | inactive: -0.04 | inactive: 0.026
PDLIM5 (UniProt Q96HC4) | inactive: -0.004 | inactive: 0.032 | inactive: 0.066 | inactive: -0.016 | inactive: 0.004 | inactive: -0.007 | inactive: 0.022 | inactive: -0.012 | inactive: -0.027 | inactive: 0.057
PAK4 (UniProt O96013) | inactive: 0.155 | inactive: -0.066 | inactive: 0.017 | inactive: -0.04 | inactive: 0.015 | inactive: 0.048 | inactive: -0.068 | inactive: -0.013 | inactive: 0.062 | inactive: -0.03
PARD6B (UniProt Q9BYG5) | inactive: 0.004 | inactive: -0.008 | inactive: -0.059 | inactive: -0.109 | inactive: 0.078 | inactive: 0.036 | inactive: 0.062 | inactive: -0.159 | inactive: -0.026 | inactive: 0.016
PEX13 (UniProt Q92968) | inactive: 0.026 | inactive: 0.03 | inactive: 0.026 | inactive: 0.009 | inactive: 0.048 | inactive: 0.073 | inactive: -0.01 | inactive: 0.005 | inactive: 0.038 | inactive: 0.036
PEPD (UniProt P12955) | inactive: -0.037 | inactive: 0.052 | inactive: 0.043 | inactive: 0.042 | inactive: 0.07 | inactive: -0.008 | inactive: -0.002 | inactive: 0.015 | inactive: 0.016 | inactive: 0.017
PDLIM7 (UniProt Q9NR12) | inactive: 0.013 | inactive: 0.039 | inactive: 0.1 | inactive: -0.037 | inactive: -0.01 | inactive: 0.002 | inactive: 0.073 | inactive: 0.016 | inactive: -0.01 | inactive: 0.133
PABPC4 isoform 3 (UniProt Q13310) | inactive: -0.086 | inactive: 0.015 | inactive: -0.118 | inactive: 0.069 | inactive: -0.005 | inactive: -0.002 | inactive: -0.022 | inactive: -0.066 | inactive: 0.051 | inactive: -0.089
PDPR (UniProt Q8NCN5) | inactive: 0.042 | inactive: 0.043 | inactive: 0.06 | inactive: 0.004 | inactive: 0.014 | inactive: -0.027 | inactive: -0.128 | inactive: 0.013 | inactive: -0.029 | inactive: 0.02
PDCL3 (UniProt Q9H2J4) | inactive: -0.017 | inactive: 0 | inactive: 0.065 | inactive: -0.034 | inactive: -0.016 | inactive: 0.039 | inactive: -0.025 | inactive: 0.022 | inactive: 0.003 | inactive: 0.026
PAFAH1B1 (UniProt P43034) | inactive: -0.011 | inactive: 0.032 | inactive: 0 | inactive: 0.008 | inactive: -0.004 | inactive: 0.005 | inactive: -0.039 | inactive: -0.021 | inactive: 0.001 | inactive: 0.01
PEBP1 (UniProt P30086) | inactive: -0.006 | inactive: -0.02 | inactive: 0.046 | inactive: 0.005 | inactive: -0.024 | inactive: 0.016 | inactive: -0.007 | inactive: 0.002 | inactive: 0.033 | inactive: 0.065
PEX1 (UniProt O43933) | inactive: 0.013 | inactive: 0.017 | inactive: 0.038 | inactive: 0.038 | inactive: 0.02 | inactive: 0 | inactive: 0.028 | inactive: -0.032 | inactive: -0.046 | inactive: 0.023
PARS2 (UniProt Q7L3T8) | inactive: -0.067 | inactive: 0.021 | inactive: -0.064 | inactive: 0.013 | inactive: -0.047 | inactive: 0.03 | inactive: -0.043 | inactive: -0.006 | inactive: 0.033 | inactive: -0.087
PAPOLA (UniProt P51003) | inactive: -0.018 | inactive: 0.062 | inactive: 0.069 | inactive: 0.009 | inactive: 0.031 | inactive: 0.022 | inactive: 0.032 | inactive: 0.042 | inactive: -0.02 | inactive: -0.009
PCTP (UniProt Q9UKL6) | inactive: 0.035 | inactive: -0.04 | inactive: 0.065 | inactive: 0.046 | inactive: 0.057 | inactive: 0.076 | inactive: 0.012 | inactive: 0.002 | inactive: 0.049 | inactive: -0.035
PET100 (UniProt P0DJ07) | inactive: 0.007 | inactive: 0 | inactive: 0 | inactive: -0.008 | inactive: 0.118 | inactive: 0.018 | inactive: -0.093 | inactive: 0.014 | inactive: -0.02 | inactive: 0.065
PCBD2 (UniProt Q9H0N5) | inactive: 0.014 | inactive: -0.025 | inactive: 0.031 | inactive: -0.061 | inactive: 0.052 | inactive: 0.016 | inactive: -0.016 | inactive: -0.018 | inactive: 0.012 | inactive: 0.071

Single values from the entries so far.
Value of PBXIP1 (UniProt Q96AQ6) under log2 fold change [3]: inactive: 0.02
Value of PCTP (UniProt Q9UKL6) under log2 fold change [9]: inactive: -0.035
